In EP2649983A1, “Compounds which inhibit neuronal exocytosis (II)” (Lipotec, S.A., priority 2012, dated 2013):
Part of at least one peptide drawing is inferred or uncertain, most often the ends. Non-standard residues stand in square brackets, D forms with d. Residues, ends and D or L forms follow the SMILES beside them. Met(O2) = CS(=O)(=O)CC[C@H](N)C(=O)O; Met(O) = CS(=O)CC[C@H](N)C(=O)O

What was measured:
SNARE complex [1] = test: Inhibition of SNARE complex formation (competition versus SNAP-25), complex detected by ELISA; type: binding; settings: concentration of compound 0.5 mM
Description: With the aim of determining the capacity of inhibition of the SNARE complex formation by the compounds of the invention, the competitive inhibition of the compounds compared to SNAP-25 was studied with regards to the formation of this complex. The proportion of SNARE complex formed was determined by the ELISA technique, using one of the proteins from the complex bound to GST. In a 96-well plate VAMP was immobilized (using a 0.037 µM solution) and subsequently the free spaces were blocked with BSA (3%). Parallel to this process, SNAP-25 bound to GST (0.0185 µM), syntaxin (0.037 µM) and a compound of the invention (2.5 mM and 0.5 mM compounds) were incubated for 1 hour. After incubation, the samples were transferred to the plate with immobilized VAMP and were incubated for 1 hour to allow the formation of the SNARE complex. Afterward, the plate was washed and the complex was detected by a primary antibody anti-GST (Antibody anti-GST epitope TAG, Fisher Cat. no:PA1-982A). The reading was carried out at a wavelength of 490 nm in a TECAN GENios spectrophotometric reader.
Table 4 showns the results of the competitive inhibition of the formation of the SNARE complex by the compounds of the invention versus SNAP-25. The percentage of inhibition of the formation of the complex is inversely proportional to the quantity of SNARE complex spectrophotometrically detected.

SNARE complex [2] = test: Inhibition of SNARE complex formation, complex detected by electrophoresis (SDS-PAGE); type: binding; settings: concentration of compound 5 mM
Description: VAMP (6 µM), syntaxin (6 µM) and the compound of the invention (5 mM or 1 mM compounds) were incubated for 3 hours. Subsequently, SNAP-25 (0.6 µM) was added and the mixture was incubated for an additional 15 hours to allow the formation of the SNARE complex. After incubation, the loading buffer (Laemli Simple Buffer) was added and the mixture was analyzed by 10% acrylamide SDS-PAGE in gel. The amount of complex was determined by MediaCybernetics image analysis software Image-Pro Plus.
The percentage of inhibition of the formation of the complex is inversely proportional to the quantity of SNARE complex detected.

SMILES | % inhibition formation SNARE complex (SNARE complex [1]) | % inhibition formation SNARE complex (SNARE complex [2])
CC(=O)N[C@@H](CC(=O)O)C(=O)N[C@@H](Cc1c[nH]cn1)C(=O)N[C@@H](Cc1ccccc1)C(=O)N[C@@H](CC(C)C)C(=O)N[C@@H](CC(=O)O)C(=O)N[C@@H](Cc1c[nH]c2ccccc12)C(=O)N[C@@H](CC[S+](C)[O-])C(N)=O (stereo partly shown) [Ac-SEQ ID NO:56-NH2] (Ac-DHFLDW[Met(O)]-NH2) | 16% | 91%
CC(=O)N[C@@H](CC(=O)O)C(=O)N[C@@H](Cc1c[nH]cn1)C(=O)N[C@@H](Cc1ccccc1)C(=O)N[C@@H](CC(C)C)C(=O)N[C@@H](CC(=O)O)C(=O)N[C@@H](Cc1c[nH]c2ccccc12)C(=O)N[C@@H](CCS(C)(=O)=O)C(N)=O [Ac-SEQ ID NO:61-NH2] (Ac-DHFLDW[Met(O2)]-NH2) | 8% | 89%
